Experimental data: patent US9168317B2, “In vivo imaging method of mood disorders” (GE Healthcare Limited, priority 2010, dated 2015)
Structures were worked out from names or drawings and are uncertain.

Experiment: In vivo biodistribution method

CCN(CC)C(=O)C1CC(C)Cc2c1c1ccccc1n2CCF (stereo not drawn)
Brain 2 min (adult male Wistar rats, 1-3 MBq via lateral tail vein, brain, 2 min after injection): 0.51 % ID/g | OB 30 min (adult male Wistar rats, 1-3 MBq via lateral tail vein, olfactory bulb, 30 min after injection): 0.42 % ID/g | OB:Str 30 min (ratio olfactory bulb:striatum, 30 min after injection, Wistar rats): 3.50
